From US20070248944A1, “Preventive and Remedy for Collagen or Elastin Metabolic Disorder” (YAMAGUCHI UNIVERSITY, priority 2004, published 2007)
At least one compound was matched to its structure with a doubt left.

Key:
prolyl 4-hydroxylase = experiment: Prolyl 4-hydroxylase mRNA expression in TNF-α-stimulated vascular smooth muscle cells, Northern blot; format: cell-based, rat; settings: 50 mM; TNF-α 10 ng/ml; 24 hours; p<0.05
[1] = tested on: abdominal aortic aneurysm model (calcium chloride-treated mice); experiment: Aneurysm therapy and regression in calcium chloride-treated mouse aneurysm model; format: in vivo; settings: SP group vs 6-week group; t-test p<0.01
[2] = tested on: abdominal aortic aneurysm model (calcium chloride-treated mice); experiment: JNK inhibition experiment using a calcium chloride-treated mouse aneurysm model (prevention); format: in vivo; settings: week 10
[3] = tested on: abdominal aortic aneurysm model (angiotensin II-infused apoE knockout mice); experiment: JNK inhibition experiment using an apoE knockout mouse aneurysm model (angiotensin II infusion, prevention); format: in vivo; settings: week 4; vs control group; t-test p<0.05
Procedure: An abdominal aortic aneurysm model was generated through continuous administration of angiotensin II to apolipoprotein E (apo E) knockout mice according to Daugherty et al's method (J. Clin. Invest. 105: 1605-1612 (2000)). Specifically, mini-osmotic pump (Alzet) was implanted into 24-week-old apoE knockout male mice and angiotensin II (1 μg/min/kg) was continuously infused. These model mice were affected with hyperlipidemia, hypertension, and marked aortic arteriosclerosis. As a result of 4 weeks of angiotensin II infusion, aneurysm formation was observed mainly in the suprarenal abdominal aorta of these mice. Some of these mice died due to aneurysmal rupture. […] Simultaneously with the initiation of continuous infusion of angiotensin II, daily subcutaneous injection of a JNK inhibitor SP600125 (SP group: 8 mice) or a solution (control group: 16 mice) without JNK inhibitor was initiated. The method employed herein for administration of SP600125 was similar to that in Example 1 above. On week 4, the maximum diameter of each abdominal aorta was measured using ultrasonic diagnostic equipment.

Q: Which “Prolyl 4-hydroxylase expression level (mRNA)” value (prolyl 4-hydroxylase) does the source give for Oc1c2ccccc2c2c3c(cccc13)N=N2 [SP600125, Anthra[1-9-cd]pyrazol-6(2H)-one] here?
A: inhibited a decrease in prolyl 4-hydroxylase expression level

Q: And the Aneurysm regression [1]?
A: causing aneurysm regression was demonstrated

Q: What about the “Histology of aortic wall structure” value ([2]; compared with sham surgery group) of the same molecule?
A: wall structures were well maintained

Q: What about the Aneurysm formation ([2]; vs control group, Fisher's exact test p<0.01) of the same molecule?
A: significantly suppressed

Q: What about the Aneurysm formation [3] of the same molecule?
A: significantly suppressed aneurysm formation
